Results published in PubChem BioAssay AID1117319 (Southern Research Institute, 2015).
Among all 260,000 compounds or so, about 1,500 (0.58%) were called active. Inconclusive means that the source gave no clear call. Such entries were picked first, then a sample of the others.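 Rule for the calls: active = inhibition above a set limit at one or more doses, reproduced on every date tested; inconclusive = results disagree between test dates, or hit never tested in dose response; inactive = the rest.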

Protein sequences, listed by entry. Tags and fused reporters are not part of them. Lines headed by an entry give the natural chain unless they say otherwise; changes in a name come on top.
UniProt P69720: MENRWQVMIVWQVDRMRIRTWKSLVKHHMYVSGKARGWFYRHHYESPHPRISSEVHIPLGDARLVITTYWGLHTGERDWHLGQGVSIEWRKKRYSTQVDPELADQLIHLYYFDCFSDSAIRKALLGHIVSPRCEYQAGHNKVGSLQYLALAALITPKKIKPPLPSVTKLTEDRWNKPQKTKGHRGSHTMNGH
UniProt P69721: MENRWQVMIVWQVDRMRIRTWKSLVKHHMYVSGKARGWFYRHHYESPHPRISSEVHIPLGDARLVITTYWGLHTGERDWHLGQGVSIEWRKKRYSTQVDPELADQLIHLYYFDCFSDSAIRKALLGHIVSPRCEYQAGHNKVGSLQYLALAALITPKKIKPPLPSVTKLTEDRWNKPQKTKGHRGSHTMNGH
UniProt P69722: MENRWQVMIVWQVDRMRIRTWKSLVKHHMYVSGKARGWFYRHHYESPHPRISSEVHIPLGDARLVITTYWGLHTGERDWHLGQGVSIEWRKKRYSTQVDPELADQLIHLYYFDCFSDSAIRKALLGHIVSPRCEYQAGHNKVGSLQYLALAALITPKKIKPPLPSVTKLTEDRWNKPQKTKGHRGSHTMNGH
UniProt P69723: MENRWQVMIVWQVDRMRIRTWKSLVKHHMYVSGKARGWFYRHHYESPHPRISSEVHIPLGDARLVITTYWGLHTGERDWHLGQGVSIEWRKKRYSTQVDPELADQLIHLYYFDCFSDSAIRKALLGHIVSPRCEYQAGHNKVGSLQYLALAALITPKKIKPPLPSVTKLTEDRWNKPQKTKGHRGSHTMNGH
UniProt Q9HC16: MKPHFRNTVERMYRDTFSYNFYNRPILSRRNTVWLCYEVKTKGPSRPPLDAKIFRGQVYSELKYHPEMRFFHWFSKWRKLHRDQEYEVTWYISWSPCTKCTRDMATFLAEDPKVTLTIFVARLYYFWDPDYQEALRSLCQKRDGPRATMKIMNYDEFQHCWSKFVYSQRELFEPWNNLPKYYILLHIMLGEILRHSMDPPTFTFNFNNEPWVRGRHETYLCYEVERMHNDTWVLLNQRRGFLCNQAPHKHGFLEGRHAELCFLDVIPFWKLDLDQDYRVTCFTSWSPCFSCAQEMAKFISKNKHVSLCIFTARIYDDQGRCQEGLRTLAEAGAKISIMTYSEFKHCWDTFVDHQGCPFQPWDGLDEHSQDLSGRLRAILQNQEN

What follows are molecules tested against Virion infectivity factor (Human immunodeficiency virus type 1 group M subtype B (isolate BH10)) + Virion infectivity factor (Human immunodeficiency virus type 1 group M subtype B (isolate BRU/LAI)) + Virion infectivity factor (Human immunodeficiency virus type 1 group M subtype B (isolate PCV12)) + Virion infectivity factor (Human immunodeficiency virus type 1 group M subtype B (isolate HXB2)) + DNA dC->dU-editing enzyme APOBEC-3G (Homo sapiens) (UniProt P69720+P69721+P69722+P69723+Q9HC16) (assay: inhibitors of Vif binding to APOBEC3G peptide, primary screen, biochemical, TR-FRET, GST-Vif 1-94, biotin-A3G peptide, dose response retest (AID 1117319;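 note: Vif residues 1-94 fused to GST binding biotinylated APOBEC3G peptide 110-148; 0% = full assay without inhibitor and 100% = GST in place of GST-Vif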)). Conditions: stronger effect = higher value.

Row | SMILES | inhibition
1 | CC(NC(=O)NC1CCCCC1)C(c1cccs1)N1CCN(c2ccccc2)CC1 (stereo not given) | inconclusive: 55.1%
2 | COc1ccc(-c2nc(-c3ccc(NC(=O)c4ccc(Br)o4)cc3)no2)cc1OC | inconclusive: 48.8%
3 | CC(O)c1nc2ccccc2n1Cc1ccc([N+](=O)[O-])cc1 (stereo not given) | inconclusive: 40.6%
4 | Cc1ccnc2c(N3C(=O)C4C5C=CC(C5)C4(C)C3=O)cccc12 (stereo not given) | inconclusive: 60.9%
5 | Cc1ccc(S(=O)(=O)NCC(=O)OC(C(=O)c2ccccc2)c2ccccc2)cc1 (stereo not given) | inactive: 17.9%
6 | O=C1CCCC2=C1C(c1ccco1)Nc1ccc(C(=O)c3ccccc3)cc1N2 (stereo not given) | inconclusive: 51.7%
7 | CCOC(=O)c1c(-c2ccccc2)csc1/N=C/C1C(=O)CCCC1=O | inconclusive: 35.4%
8 | COc1cc(C(Nc2ccc3c(c2)OCO3)C(=O)NC2CCCCC2)cc(OC)c1OC (stereo not given) | inconclusive: 44.6%
9 | CCOC(=O)c1ccc(NC(=O)NCCN2CCCCC2)cc1 | inconclusive: 63%
10 | CC(C)c1nc(SCC(=O)c2c[nH]c3ccccc23)n[nH]1 | inconclusive: 37.2%
11 | COc1cc(CNCCNC(=O)c2nonc2N)ccc1OCc1ccc(Cl)nc1 | inconclusive: 44.3%
12 | CCOC(=O)c1csc(NC(=O)c2cc3ccccc3o2)n1 | inactive: 0.78%
13 | S=c1[nH]nc(-c2cccs2)n1/N=C/c1cn(-c2ccccc2)nc1-c1ccccc1 | inconclusive: 62.4%
14 | Cc1cc(=O)[nH]c(-c2cccnc2)n1 | inconclusive: 43.9%
15 | CCOC(=O)c1c(/N=C/c2ccc(C)cc2O)sc2c1CCN(C)C2 | inconclusive: 47.3%
16 | Cc1nnc(NC(=O)c2ccc3c(c2)C(=O)N(CC2CCCO2)C3=O)s1 (stereo not given) | inconclusive: 33.7%
17 | O=C(O)CCc1ccc(-c2ccc(Cl)cc2)n1NC(=O)c1ccc(O)cc1 | inconclusive: 51.1%
18 | Cc1ccc(NC(=O)Cn2nc(C)c3ccccc3c2=O)c(C)c1 | inconclusive: 40.1%
19 | O=c1c2ccccc2[nH]c(=S)n1Cc1cccs1 | inconclusive: 41%
20 | COc1ccc(NC(=O)CSc2nc3c(c(-c4cccs4)c2C#N)CN(C)CC3)cc1OC | inconclusive: 59.5%
21 | Cc1ccc(S(=O)(=O)N[C@@H](Cc2ccccc2)C(=O)CCl)cc1 | inconclusive: 55%
22 | Cc1cccc(NS(=O)(=O)c2cccc(C(=O)N3CCCCCCC3)c2)c1 | inconclusive: 55.6%
23 | CC(/C=C/c1ccc(C)o1)=C\C(=O)O | inactive: 2.74%

Row | SMILES | inhibition
24 | COc1ccc(N2C(=O)CC(N(CCc3ccccc3)C(=O)c3ccccc3)C2=O)cc1 (stereo not given) | inconclusive: 45%
25 | Cc1nn(-c2ccc(F)cc2)c(Cl)c1/C=C(\CC(=O)O)c1nc2ccccc2s1 | inconclusive: 53.9%
26 | Cc1nc(N)sc1C(=O)N/N=C/c1ccco1 | inconclusive: 34.6%
27 | Cc1c[nH]c2cccc(OCC(O)CNC(C)(C)C)c12 (stereo not given) | inconclusive: 53.1%
28 | COc1ccc(NC(=O)CCCN2C(=O)CCC2=O)cc1Cl | inconclusive: 36.3%
29 | CC(C)C12CN3CC(C(C)C)(CN(C1)C3c1ccc3c(c1)OCO3)C2=O (stereo not given) | inactive: 2.83%
30 | CC(C)N1CCC(N2CCN(Cc3cnc(-c4ccccc4)s3)CC2CCO)CC1 (stereo not given) | inconclusive: 51.1%
31 | CCCCC(=O)N/N=C/c1sccc1C | inactive: -0.53%
32 | CCc1ccc(S(=O)(=O)NCC(O)COc2ccc(OC)cc2)cc1 (stereo not given) | inconclusive: 43.3%
33 | O=C(Nc1ccccc1-c1ccccc1)c1ccc(Br)o1 | inconclusive: 38%
34 | CCC1(C)Cc2ccccc2-c2nc(NCCCO)n(-c3ccccc3)c(=O)c21 (stereo not given) | inactive: -4.2%
35 | COc1cc2[nH]c3c(=O)n(N)c(=O)[nH]c3c2cc1OC | inactive: -6%
36 | COc1cccc(S(=O)(=O)NCC(=O)Nc2ccc(C(C)(C)C)cc2)c1 | inconclusive: 35.9%
37 | COc1cc(C(c2c(C)[nH][nH]c2=O)c2c(C)[nH][nH]c2=O)ccc1OS(=O)(=O)c1ccccc1 | inconclusive: 43.8%
38 | O=C1c2cc(Br)ccc2OC2C=CC=CC12 (stereo not given) | inactive: -11.4%
39 | Cc1cc2c(s1)c1cnn(Cc3ccccc3F)c(=O)c1n2C | inconclusive: 58.3%
40 | Oc1ccccc1CNCCCNCc1ccccc1O | inconclusive: 55.9%
41 | CC(NC(=S)Nc1ccc(OC(F)F)c(Cl)c1)C(C)(C)C (stereo not given) | inconclusive: 47.9%
42 | O=C(O)/C=C\C(=O)Nc1ccc(N2CCN(c3ccc(Cl)cc3)CC2)cc1 | inconclusive: 46.5%
43 | COc1cc(/C=N\N=C2/SC(CC(=O)O)C(=O)N2c2ccc(O)cc2)ccc1O (stereo not given) | inconclusive: 55.3%
44 | COc1cc(NC2=CC(=O)CC(C)(C)C2)cc(OC)c1 | inconclusive: 39.4%
45 | CCN(CC)CCCNC(=O)C1CCC(=O)N(c2ccc(OC)cc2)C1c1ccc(F)cc1 (stereo not given) | inconclusive: 36.5%
46 | CC(c1ccccc1C(O)(c1ccccc1)c1ccccc1)N(C)C (stereo not given) | inconclusive: 36.7%

Row | SMILES | inhibition
47 | COc1ccc(-n2c(Cc3cccn3C)nnc2SCC(=O)N2CCC(C)CC2)cc1 | inconclusive: 52.7%
48 | CCOCCCn1c(=NC(=O)c2ccc(OC)c(OC)c2)c(C#N)cc2c(=O)n3cccc(C)c3nc21 | inconclusive: 59.5%
49 | CN1/C(=C/C(=S)NC(=O)C2CCC2)C(C)(C)c2ccccc21 | inactive: 3.95%
50 | C=CCSC1=N/C(=C\c2ccsc2)C(=O)S1 | inactive: 2.35%
51 | Cc1ccc2[nH]c(=O)c(-c3nc4c(C)cccn4c3NCc3ccco3)cc2c1 | inconclusive: 48.3%
52 | O=C1/C(=C\c2cccnc2)CN(Cc2ccccc2)C/C1=C\c1cccnc1 | inconclusive: 54%
53 | CC(C)c1onc(C(=O)NCCc2ccccc2)c1[N+](=O)[O-] | inconclusive: 49.5%
54 | O=C(Nc1ccc(Cl)cn1)c1cccc(S(=O)(=O)N2CCOCC2)c1 | inconclusive: 39.5%
55 | O=[N+]([O-])c1cc(/C=N\Nc2nc(-c3ccccc3)cs2)ccc1O | inconclusive: 44.1%
56 | c1ccc2nc3c(nc2c1)c1ccccc1n3CCN1CCOCC1 | inconclusive: 48.9%
57 | CCCCOc1ccccc1C1NC(=O)CCC1[N+](=O)[O-] (stereo not given) | inactive: -4.07%
58 | CCn1c(SCC(=O)Nc2ccc(OC)c(OC)c2)nnc1-c1cccs1 | inconclusive: 34.8%
59 | CCc1c(C)nc2ncnn2c1N1CCC(C(=O)NCc2ccc3c(c2)OCO3)CC1 | inconclusive: 46.4%
60 | O=C(CSc1nnnn1-c1cccc2ccccc12)N1CCOCC1 | inactive: 10.1%
61 | O=C(CC12CC3CC(CC(C3)C1)C2)N1CCCOC1 | inconclusive: 39.9%
62 | OC[C@H]1O[C@@H](n2cnc3c(NC4CCCC4)ncnc32)[C@H](O)[C@@H]1O | inconclusive: 38.5%
63 | Nc1cc(S(=O)(=O)O)cc([N+](=O)[O-])c1O | inconclusive: 35.8%
64 | COc1ccc(C)cc1S(=O)(=O)Nc1ccc2c(c1)OCO2 | inconclusive: 36%
65 | Cc1cc(NC(=O)CSc2nc3ccccc3c(=O)n2C2CCCC2)no1 | inactive: 3.03%
66 | CCN(CC)c1ccc(/C=N/NC(=O)c2ccc(Br)o2)cc1 | inconclusive: 34.1%
67 | COc1ccccc1OCCC(=O)Nc1nc(C)cs1 | inconclusive: 50%
68 | CCN(CC)c1ccc(N2C(=O)CSC2=S)cc1 | inactive: -8.43%
69 | Oc1ccccc1C1OCC2(CO1)COC(c1ccccc1O)OC2 (stereo not given) | inconclusive: 37.7%

Row | SMILES | inhibition
70 | CN(CC(=O)Nc1ccc(F)c(Cl)c1)S(=O)(=O)c1cccc2nsnc12 | inconclusive: 34.7%
71 | COc1ccc(-c2noc(CN(C(=O)C(C)(C)C)C(C)C)n2)cc1 | inconclusive: 44.2%
72 | Nn1c(-c2ccccc2)nc2cc(Cl)ccc2c1=O | inconclusive: 39.1%
73 | Cc1ccc(-c2nnc(-c3ccc(Br)cc3)o2)o1 | inconclusive: 39%
74 | CCN(CC)CCN1C(=O)C(=O)/C(=C(/O)c2c(C)[nH]c(C(=O)OC)c2C)C1c1ccccc1 (stereo not given) | inconclusive: 40%
75 | Cc1nn(-c2ccccc2)c(C)c1C(=O)Nc1ccc(N2CCOCC2)cc1 | inconclusive: 33.6%
76 | CCCc1nc2sc3c(SCC(=O)NCc4ccco4)ncnc3c2c2c1CCC2 | inconclusive: 44.5%
77 | CCCCN(CC)CCCNC(=O)c1ccc(CSc2nc3ccncc3[nH]2)cc1 | inconclusive: 44.6%
78 | COC(=O)c1ccccc1NC(=S)NC(=O)C1CC1 | inactive: 0.95%
79 | Cc1ccc(S(=O)(=O)NCCCCCC(=O)N(C)C)cc1 | inconclusive: 47.5%
80 | COc1ccc2nc(Cl)c(C3CC(c4ccco4)=NN3C(=O)CCCC(=O)O)cc2c1 (stereo not given) | inconclusive: 39.2%
81 | CC1(C)CC(=O)C2=C(C1)N(Cc1ccco1)C(=O)NC2(C(F)(F)F)C(F)(F)F | inactive: -1.11%
82 | CSc1nc(-c2ccco2)nn1C(=O)Cc1ccccc1 | inconclusive: 37.2%
83 | CCN(C(=O)CSc1nnc(Cn2nnc3ccccc32)o1)c1nc(C)cs1 | inconclusive: 33.5%
84 | O=C(Cn1cnc2cc([N+](=O)[O-])ccc2c1=O)Nc1ccccc1Cl | inconclusive: 42.7%
85 | O=C(N/N=C/c1cc(Br)c(Br)o1)C(O)c1ccccc1 (stereo not given) | inconclusive: 57.8%
86 | Cc1cc(C(C)(C)C)c(O)c(C(C)(C)C)c1 | inactive: 17.9%
87 | Cc1ccc(S(=O)(=O)Nc2ccc(S(=O)(=O)Nc3cc(C)nc(C)n3)cc2)cc1 | inconclusive: 49.7%
88 | O=C(COC(=O)/C=C/c1ccco1)Nc1ccccc1 | inconclusive: 35%
89 | CCn1c(=O)n(CC(=O)NC2CCCC(C)C2C)c(=O)c2ccccc21 (stereo not given) | inconclusive: 35.1%
90 | COc1ccccc1N1CCN(C(=O)c2sc3nc4n(c(=O)c3c2C)CCC4)CC1 | inconclusive: 47%

A few values from above:
inhibition, CCN(CC)CCN1C(=O)C(=O)/C(=C(/O)c2c(C)[nH]c(C(=O)OC)c2C)C1c1ccccc1 (stereo not given) reads inconclusive: 40%
inhibition, CSc1nc(-c2ccco2)nn1C(=O)Cc1ccccc1 reads inconclusive: 37.2%
inhibition, CCCc1nc2sc3c(SCC(=O)NCc4ccco4)ncnc3c2c2c1CCC2 reads inconclusive: 44.5%
inhibition, CN(CC(=O)Nc1ccc(F)c(Cl)c1)S(=O)(=O)c1cccc2nsnc12 reads inconclusive: 34.7%
inhibition, Cc1ccc(S(=O)(=O)Nc2ccc(S(=O)(=O)Nc3cc(C)nc(C)n3)cc2)cc1 reads inconclusive: 49.7%
